Values from PubChem BioAssay AID686938 (Drosophila RNAi Screening Center, 2013)

- Purpose: 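Knock-downs reducing store-operated calcium influx in Drosophila cells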 (primary screen)
- System: Drosophila S2R+ cells
- Reagent: long dsRNA against Drosophila genes, about 0.25 µg dsRNA per well, roughly 10,000 cells
- Duration: 5 days of knock-down before the calcium assay
- Treatment: thapsigargin (SERCA pump blocker) to empty calcium stores; entry signal taken 4 min after adding it
- Measurement: 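Duplicate raw fluo-4 intensities per well from a plate reader, at rest and four minutes after thapsigargin emptied calcium stores; entry-to-rest ratio filled for only some wells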
- Reading the numbers: calcium entry signal: higher = stronger calcium signal after store depletion; entry to resting ratio: higher = more calcium entry relative to resting level; resting calcium signal: higher = higher resting calcium signal
- Units: calcium entry signal in fluorescence units; resting calcium signal in fluorescence units
- Active means: 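Called when the plate z-score of the entry-to-rest ratio, mean of duplicates, falls below −3; wells with low overall dye signal (Fmax z below −2) or more than five off-targets excluded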
- Meaning of the calls: active = strongly reduced calcium entry; inactive = no strong reduction
In all, the deposit lists about 23,000 reagents; this is an unselected part of those that have a named target and a result. Of all reagents, 75 (0.33%) were called active. 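Raw plate signals without normalisation; calls rest on plate z-scores that were not deposited; ratio present for only 364 wells.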 Unmarked entries are inactive. Reagent sequences are not shown. Not stated in the record: the dose of the treatment.

After knock-down of CG14966 [DRSC08425], the screen gave calcium entry signal, replicate 1 = 3.61e7; calcium entry signal, replicate 2 = 3.00e7; resting calcium signal, replicate 1 = 1.93e7; resting calcium signal, replicate 2 = 1.51e7.
CG3407 [DRSC00603] scored calcium entry signal, replicate 1 = 4.50e7; resting calcium signal, replicate 1 = 2.40e7.
Depletion of Dbp80 [DRSC22034] resulted in: calcium entry signal, replicate 1 = 3.13e7; calcium entry signal, replicate 2 = 5.13e7; resting calcium signal, replicate 1 = 1.50e7; resting calcium signal, replicate 2 = 2.62e7.
For wrd [DRSC16337] the deposit lists calcium entry signal, replicate 1 = 1.99e7; calcium entry signal, replicate 2 = 2.65e7; resting calcium signal, replicate 1 = 1.21e7; resting calcium signal, replicate 2 = 5.17e7.
Knock-down of wrd [DRSC16344] gave: calcium entry signal, replicate 1 = 3.40e7; calcium entry signal, replicate 2 = 4.62e7; resting calcium signal, replicate 1 = 5.81e7; resting calcium signal, replicate 2 = 2.07e7.
For wrd [DRSC23189], the values are calcium entry signal, replicate 1 = 3.69e7; calcium entry signal, replicate 2 = 4.70e7; resting calcium signal, replicate 1 = 1.75e7; resting calcium signal, replicate 2 = 1.97e7.
Depletion of lncRNA:CR43242 [DRSC03827] came out at: calcium entry signal, replicate 1 = 4.76e7; calcium entry signal, replicate 2 = 4.54e7; resting calcium signal, replicate 1 = 2.24e7; resting calcium signal, replicate 2 = 2.08e7.
With knock-down of Mcr [DRSC03366] the results were calcium entry signal, replicate 1 = 4.54e7; resting calcium signal, replicate 1 = 2.67e7.
After knock-down of laf [DRSC12246], the record shows calcium entry signal, replicate 1 = 3.34e7; calcium entry signal, replicate 2 = 5.33e7; resting calcium signal, replicate 1 = 1.62e7; resting calcium signal, replicate 2 = 2.36e7.
CR17024 [DRSC02562] scored calcium entry signal, replicate 1 = 4.62e7; calcium entry signal, replicate 2 = 3.15e7; resting calcium signal, replicate 1 = 1.98e7; resting calcium signal, replicate 2 = 1.46e7.
For CG12782 [DRSC04127], the entry reads calcium entry signal, replicate 1 = 2.26e7; calcium entry signal, replicate 2 = 2.26e7; resting calcium signal, replicate 1 = 1.25e7; resting calcium signal, replicate 2 = 1.07e7.
After knock-down of mIF2 [DRSC14510], the screen gave calcium entry signal, replicate 1 = 4.17e7; calcium entry signal, replicate 2 = 4.70e7; resting calcium signal, replicate 1 = 1.91e7; resting calcium signal, replicate 2 = 1.80e7.
After knock-down of Gad1 [DRSC08661] the results were calcium entry signal, replicate 1 = 3.95e7; calcium entry signal, replicate 2 = 3.06e7; resting calcium signal, replicate 1 = 2.71e7; resting calcium signal, replicate 2 = 1.36e7.
With knock-down of CG34033 [DRSC05190], the screen gave calcium entry signal, replicate 1 = 3.36e7; calcium entry signal, replicate 2 = 7.02e7; resting calcium signal, replicate 1 = 1.72e7; resting calcium signal, replicate 2 = 3.08e7.
Silencing of Cyp6d5 [DRSC16634] gave: calcium entry signal, replicate 1 = 3.25e7; calcium entry signal, replicate 2 = 3.23e7; resting calcium signal, replicate 1 = 1.41e7; resting calcium signal, replicate 2 = 1.49e7.
SREBP [DRSC11182] scored calcium entry signal, replicate 1 = 1.60e7; calcium entry signal, replicate 2 = 1.36e7; resting calcium signal, replicate 1 = 1.30e7; resting calcium signal, replicate 2 = 1.08e7.
CrzR [DRSC09781] gave calcium entry signal, replicate 1 = 3.24e7; calcium entry signal, replicate 2 = 4.37e7; resting calcium signal, replicate 1 = 1.79e7; resting calcium signal, replicate 2 = 1.89e7.
Silencing of CrzR [DRSC09782] came out at: calcium entry signal, replicate 1 = 3.07e7; calcium entry signal, replicate 2 = 5.00e7; resting calcium signal, replicate 1 = 1.62e7; resting calcium signal, replicate 2 = 2.12e7.
Depletion of Est-P [DRSC11163] gave: calcium entry signal, replicate 1 = 2.76e7; calcium entry signal, replicate 2 = 3.60e7; resting calcium signal, replicate 1 = 1.54e7; resting calcium signal, replicate 2 = 1.57e7.
With knock-down of CG16989 [DRSC18535] the results were calcium entry signal, replicate 1 = 2.88e7; calcium entry signal, replicate 2 = 4.74e7; entry to resting ratio 2; resting calcium signal, replicate 1 = 1.42e7; resting calcium signal, replicate 2 = 1.81e7.
For CG5421 [DRSC02858] the deposit lists calcium entry signal, replicate 1 = 4.22e7; calcium entry signal, replicate 2 = 2.66e7; resting calcium signal, replicate 1 = 1.88e7; resting calcium signal, replicate 2 = 1.30e7.
